Test results as given in PubChem BioAssay AID590 (National Center for Advancing Translational Sciences (NCATS), 2007).
Several values for one entry are separate records, joined by “and”; a condition that tells them apart may be missing. Identical values can stand only once. The campaign covered roughly 59,000 compounds. About 6,500 (11%) were called active. Inconclusive results, whose numbers are uncertain, are shown with a selection of clear calls. Rule as the data show it: active = max dye-equivalent concentration above about 10 nM; inconclusive = mostly about 1.1 nM to 9.6 nM; inactive = weaker than that.

Test: qHTS Assay for Spectroscopic Profiling in A350 Spectral Region
Conditions: Compound autofluorescence, 340/450 nm, Alexa 350 dye-equivalents; active compounds read high

SMILES | max dye-equivalent concentration
Cn1c(Sc2ccc(-c3cccnc3)n2C)ccc1-c1cccnc1 | inactive
Cc1ccc(-c2nnn(CC(=O)N(CC3CCCO3)C(C(=O)NC(C)(C)C)c3ccc(F)cc3)n2)o1 (stereo unspecified) | inactive
Cc1cc(C)n2nc(SCC(=O)N(C)c3ccccc3)nc2n1 | inactive
CSc1nc2ccc(NC(=O)C3CCCO3)cc2s1 (stereo unspecified) | inactive
CCOc1ccc2[nH]c(=O)c(CN(CCCO)C(C)=O)cc2c1 | active: 2.9e-07 M
CC1CCCCN1S(=O)(=O)c1ccc2c(c1)CCN2C(=O)C1CCC1 (stereo unspecified) | inactive
Nn1c(SCC(=O)Nc2ccc(F)cc2F)nnc1C1CCCCC1 | inconclusive: 3.4e-09 M
COc1ccc2c(c1)N(CC[C@H]1CCCCN1C)c1ccccc1S2 | inactive
C=CCNC(=O)c1c(N)n(-c2cccc(S(N)(=O)=O)c2)c2nc3ccccc3nc12 | active: 1.7e-06 M
COC(=O)c1ccc(Oc2nc(Nc3ccc(F)cc3)nc(N3CCCC3)n2)cc1 | inactive
CCCCC(c1nnnn1CC1CCCO1)N1CCN(c2cccc(C)c2C)CC1 (stereo unspecified) | inconclusive: 2e-09 M
C#CCOC(=O)c1ccccc1C(=O)OCC#C | active: 1.1e-08 M
COc1ccc(-c2nnc3sc(-c4ccccn4)nn23)cc1 | inconclusive: 8.1e-09 M
Cc1ccc2c(c1)NCCO2 | inconclusive: 1.1e-09 M
COC(=O)c1ccccc1NC(=O)C1CC(=O)N(C2CCCCC2)C1 (stereo unspecified) | inactive
COc1ccc(C2C(C(=O)c3sc(C)nc3C)=C(O)C(=O)N2CCN(C)C)cc1OC (stereo unspecified) | inconclusive: 1.3e-09 M
Cc1cc(C)n(-c2ncnc3sc4c(c23)CCCC4)n1 | inconclusive: 4e-09 M
CCn1cc(C(=O)O)c(=O)c2cc(F)c(N3CCN(C(=O)Nc4ccccc4)CC3)cc21 | active: 2.1e-08 M
COc1ccc(C[C@H](O)CN2CCOCC2)cc1 | inactive
CN(C)c1nc(Oc2ccc(=O)n(C)n2)nc(N2CCOCC2)n1 | inconclusive: 1.7e-09 M
COc1ccc(-c2nc(C#N)c(NCC3CCCO3)o2)cc1 (stereo unspecified) | active: 1.2e-08 M
CCN=c1sc(C(=O)NCCc2ccccc2)cc(=O)n1CC | inconclusive: 2.1e-09 M
COCC(=O)N(Cc1cc2cc(OC)ccc2[nH]c1=O)c1ccccc1OC | active: 3.8e-07 M

SMILES | max dye-equivalent concentration
CCOC(=O)CSc1nc2cc(C(=O)NCc3ccco3)ccc2c(=O)n1-c1ccc(F)cc1 | inconclusive: 4.6e-09 M
COc1ccc2[nH]c(=O)c(CN(C(=O)c3ccncc3)C(C)C)cc2c1 | active: 1.7e-07 M
Cc1cccc(CN2CCNC2=O)c1 | inconclusive: 3.7e-09 M
CC1CCCCN1CCNc1nc(=S)[nH]c2ccccc12 (stereo unspecified) | inconclusive: 1.7e-09 M
O=C(CCCCCN1C(=O)c2ccccc2C1=O)NCCc1nc2ccccc2[nH]1 | inactive
CC(=O)Nc1ccccc1-c1ccc(C)o1 | inactive
COc1ccc(C2(O)CCN(C(=O)Cc3cccnc3)CC2)cc1 | inconclusive: 1.6e-09 M
O=C(Nc1ccc(Oc2ccccc2)cc1)c1ccco1 | inactive
Cc1cc(=O)oc(C)c1C(=O)NCCc1ccccc1 | inconclusive: 2.8e-09 M
O=C(NCCN1CCOCC1)c1cccc(S(=O)(=O)N2CCCCCC2)c1 | inconclusive: 1.1e-09 M
COc1ccc(Oc2ncc3nc(C)c(=O)n(C[C@H]4CCCO4)c3n2)cc1 | inactive
CC1CCCC(C)N1C(=O)CN1C(=O)C(C)(C)Oc2ccc(C(=O)NC3CCCC3)cc21 (stereo unspecified) | inactive
Clc1ccccc1-c1nc(Nc2ccncc2)c2ccccc2n1 | inconclusive: 1.1e-09 M
CCOC(=O)CC(=O)CSCC(=O)Nc1ccc(C)cc1 | inactive
CCOc1ccc(CC(=O)Nc2c(C(N)=O)oc3ccccc23)cc1OCC | inconclusive: 1.5e-09 M
COc1ccc2[nH]cc(CCNc3cc(-c4ccccc4C(F)(F)F)ncn3)c2c1 | inactive
CN(C)C=C1C(=O)c2ccccc2C1=O | inactive
COc1ccccc1NS(=O)(=O)c1ccc(C)c(C(N)=O)c1 | inconclusive: 4e-09 M
O=C(CSc1ncn[nH]1)Nc1nc(-c2ccccc2)ns1 | inconclusive: 3.1e-09 M
Cc1cc(N2CCN(c3ccccn3)CC2)n2nc(C)nc2n1 | inconclusive: 8.5e-09 M
CS(=O)(=O)Nc1ccccc1C(=O)NCc1ccco1 | inconclusive: 7.6e-09 M
O=C(COC(=O)C1COc2ccccc2O1)NC(=O)NC1CCCC1 (stereo unspecified) | inactive
Cc1ccc2cc(C#N)c(N3CCCC3)nc2c1C | active: 3.2e-07 M

SMILES | max dye-equivalent concentration
COC(=O)c1ccccc1N(C)S(C)(=O)=O | inconclusive: 2.1e-09 M
O=C(Nc1cccc(-c2cn3ccsc3n2)c1)c1ccccc1 | inactive
NC[C@@H]1O[C@H](O[C@H]2[C@H](O)[C@@H](O[C@H]3[C@H](O)[C@H](N)C[C@H](N)[C@H]3O[C@@H]3O[C@H](CO)[C@@H](O)[C@H](O)[C@@H]3N)O[C@H]2CO)[C@@H](N)[C@H](O)[C@@H]1O | inconclusive: 3.2e-09 M
Cn1cccc1C(=O)N1CCC2(CCCN(Cc3ccc(C#N)cc3)C2)CC1 | inactive
NC(=O)c1ncn([C@@H]2O[C@@H](CO)[C@@H](O)[C@H]2O)c1O | inconclusive: 1.8e-09 M
Nc1nc(-c2nc3ccccc3[nH]2)cs1 | inactive
COc1ccc(NC(=O)CN2CCN(S(=O)(=O)c3ccc(C(C)C)cc3)CC2)cc1OC | inconclusive: 1.4e-09 M
COc1cc(-c2nc3ccccn3c2NCC2CCCO2)ccc1O (stereo unspecified) | active: 2e-07 M
COCCn1c(=O)c(-c2cn(C)c3ccccc23)nc2cnc(Oc3ccccc3)nc21 | inactive
CC1CCCCN1S(=O)(=O)c1ccc(C(=O)Nc2nnc(-c3cccs3)o2)cc1 (stereo unspecified) | inactive
O=C(CSc1nnnn1C1CCCCC1)N1CCc2ccccc21 | inconclusive: 1.3e-09 M
Cc1cnc(-c2nnc(N(C)C(=O)C3CCCO3)s2)cn1 (stereo unspecified) | inconclusive: 2.9e-09 M
O=C(CC(Cc1ccccc1)C(=O)O)NCCc1ccc2c(c1)OCO2 (stereo unspecified) | inconclusive: 1.1e-09 M
CCN(CC)CCCN1C(=O)C(=O)/C(=C(/O)c2ccccc2)C1c1ccccn1 (stereo unspecified) | inactive
COc1ccc(-c2c3c(=O)n(C)c(=O)n(C)c3cn2C2CCCCC2)cc1 | inconclusive: 3.5e-09 M
COc1cccc(OC)c1C(=O)Nc1ccccc1C(=O)N1CCOCC1 | inconclusive: 3.9e-09 M
CCOC(=O)c1sc(NC(C)=O)c(C(=O)OCC)c1C | active: 1.2e-08 M
CC(=O)Nc1ccccc1NC(=O)CN(C)S(=O)(=O)c1ccc(C)cc1 | inactive
Cc1cc(C(F)(F)F)nn1Cc1ccc(C(=O)NCc2ccco2)o1 | inconclusive: 4.9e-09 M
CC(C)(C)N1C(=O)Cc2c1nc(N)c1c(N)nc(N3CCCCC3CO)c(C#N)c21 (stereo unspecified) | active: 8.4e-08 M
O=C(c1cc(-c2ccco2)on1)N1CCN(C(c2ccccc2)c2ccccc2)CC1 | inactive
C#CCOC(=O)CCC(=O)Nc1cc(OC)nc(OC)n1 | inconclusive: 1.7e-09 M
CC1(C)Cc2c(sc3ncnc(N)c23)CO1 | inconclusive: 4.5e-09 M

SMILES | max dye-equivalent concentration
Cc1ccccc1OCc1nc(-c2ccc(NC(=O)c3ccco3)cc2)no1 | inactive
COc1cc2nc(N3CCN(C(=O)C4CCCO4)CC3)nc(N)c2cc1OC (stereo unspecified) | active: 1.1e-06 M and active: 2.1e-06 M
Cc1cnc(-c2nnc(N(C)C(=O)C3CCOC3)s2)cn1 (stereo unspecified) | inconclusive: 2.6e-09 M
CCN(CC)S(=O)(=O)c1cccc(C(=O)NC(C(=O)Nc2nnc(C3CC3)s2)C(C)C)c1 (stereo unspecified) | inconclusive: 1.3e-09 M
O=C(O)CCCC(=O)Nc1nc(-c2ccccc2)cs1 | inconclusive: 1.1e-09 M
CCOc1ccc(-n2c(SCC(=O)NCc3ccco3)nc3c([nH]c4ccccc43)c2=O)cc1 | inconclusive: 6.1e-09 M
CCCN1CCN(C(c2cc3cc(OCC)ccc3[nH]c2=O)c2nnnn2C2CCCCC2)CC1 (stereo unspecified) | active: 5.1e-07 M
COC(=O)C1=C(N)Oc2cc(C)n(Cc3cccnc3)c(=O)c2C1c1ccc(OC)c(OC)c1OC (stereo unspecified) | inconclusive: 1.6e-09 M
CCCCCC(=O)Nc1ccc2oc(-c3cncc(Br)c3)nc2c1 | active: 2.2e-08 M
Cc1cc(-c2cccnc2)c(C#N)c(SCC#N)n1 | inactive
CCc1ccc(CNc2ccc(O)cc2)cc1 | inconclusive: 1.2e-09 M
CN(Cc1ccc(OC(F)F)cc1)C(=O)c1ccc2nccnc2c1 | inconclusive: 4.1e-09 M
COc1cccc(-c2ccc3ncnc(Nc4ccccc4)c3c2)c1 | inconclusive: 7.5e-09 M
O=C(O)c1cc(-c2ccc(-c3ccccc3)cc2)nc2cc3ccccc3cc12 | active: 2.1e-08 M
O=C(OCC(=O)N1CCN(C(=O)c2ccco2)CC1)c1cn(-c2ccccc2)nc1-c1ccccc1 | inconclusive: 3.5e-09 M
CCOC(=O)C1CCN(S(=O)(=O)C(F)(F)c2nc3ccccc3s2)CC1 | inconclusive: 1.4e-09 M
COC(=O)C(NC(=O)C(C)Oc1ccccc1)C(C)C (stereo unspecified) | inconclusive: 1.8e-09 M
O=c1[nH]c(CN2CCCCC2)nc2c1C1(CCCCC1)Cc1ccccc1-2 | inconclusive: 2.1e-09 M
Cc1ccc2cc(CN(CCO)Cc3nnnn3Cc3ccc(F)cc3)c(=O)[nH]c2c1 | inconclusive: 1.4e-09 M
COc1ccccc1C(=O)Nc1ncc2c(n1)CC(c1ccco1)CC2=O (stereo unspecified) | inconclusive: 1.4e-09 M
Cn1nnnc1SCC(=O)NCc1cccc(C(=O)O)c1 | inconclusive: 2.1e-09 M
COCC(=O)N1CCC[C@@]2(CCN(C(=O)Nc3ccc(OC)cc3)C2)C1 | inactive
